Measured values published in publication PMC10014103, “The immunometabolite itaconate stimulates OXGR1 to promote mucociliary clearance during the pulmonary innate immune response” (The Journal of Clinical Investigation, 2023).

Assay: Endogenous metabolite concentrations in BAL and epithelial lining fluid of mice (LC-MS, GC-MS)
Format: in vivo, mouse
Conditions: for endogenous concentration in BAL, PAO1-infected mice: 12 hours post infection, ITA by LC-MS, α-KG by GC-MS (detection threshold)

| SMILES | endogenous concentration in BAL, PAO1-infected mice [nM] | endogenous concentration in BAL, uninfected mice (LC-MS) [nM] | concentration in undiluted ELF, PAO1-infected mice, range (calculated from BAL using urea as marker of dilution) [µM] | concentration in undiluted epithelial lining fluid (ELF), PAO1-infected mice (calculated from BAL using urea as marker of dilution, mean) [µM] |
| --- | --- | --- | --- | --- |
| C=C(CC(=O)O)C(=O)O [ITA, itaconate] | 122 to 689 | 0 to 0.067 | 18 to 215 | 109.5 ± 69.2 |
| O=C(O)CCC(=O)C(=O)O [α-KG, α-ketoglutaric acid, reference compound] | < 125 | – | – | – |
